PMC8688524
These are yes or no findings as the source states them, for the method shown. In cells and extracts the contact can be indirect. Some results given as binding are weak or reduced against the parent protein; the word gives no strength. For part of these data: Tags and fused reporters may be left off the sequences shown. Each block holds one molecule with its values, some of them ahead of it.

By UniProt entry, the sequences of proteins in these tests, tags left out. Residues count along the entry.
UniProt A8TX70, residues 19-2615: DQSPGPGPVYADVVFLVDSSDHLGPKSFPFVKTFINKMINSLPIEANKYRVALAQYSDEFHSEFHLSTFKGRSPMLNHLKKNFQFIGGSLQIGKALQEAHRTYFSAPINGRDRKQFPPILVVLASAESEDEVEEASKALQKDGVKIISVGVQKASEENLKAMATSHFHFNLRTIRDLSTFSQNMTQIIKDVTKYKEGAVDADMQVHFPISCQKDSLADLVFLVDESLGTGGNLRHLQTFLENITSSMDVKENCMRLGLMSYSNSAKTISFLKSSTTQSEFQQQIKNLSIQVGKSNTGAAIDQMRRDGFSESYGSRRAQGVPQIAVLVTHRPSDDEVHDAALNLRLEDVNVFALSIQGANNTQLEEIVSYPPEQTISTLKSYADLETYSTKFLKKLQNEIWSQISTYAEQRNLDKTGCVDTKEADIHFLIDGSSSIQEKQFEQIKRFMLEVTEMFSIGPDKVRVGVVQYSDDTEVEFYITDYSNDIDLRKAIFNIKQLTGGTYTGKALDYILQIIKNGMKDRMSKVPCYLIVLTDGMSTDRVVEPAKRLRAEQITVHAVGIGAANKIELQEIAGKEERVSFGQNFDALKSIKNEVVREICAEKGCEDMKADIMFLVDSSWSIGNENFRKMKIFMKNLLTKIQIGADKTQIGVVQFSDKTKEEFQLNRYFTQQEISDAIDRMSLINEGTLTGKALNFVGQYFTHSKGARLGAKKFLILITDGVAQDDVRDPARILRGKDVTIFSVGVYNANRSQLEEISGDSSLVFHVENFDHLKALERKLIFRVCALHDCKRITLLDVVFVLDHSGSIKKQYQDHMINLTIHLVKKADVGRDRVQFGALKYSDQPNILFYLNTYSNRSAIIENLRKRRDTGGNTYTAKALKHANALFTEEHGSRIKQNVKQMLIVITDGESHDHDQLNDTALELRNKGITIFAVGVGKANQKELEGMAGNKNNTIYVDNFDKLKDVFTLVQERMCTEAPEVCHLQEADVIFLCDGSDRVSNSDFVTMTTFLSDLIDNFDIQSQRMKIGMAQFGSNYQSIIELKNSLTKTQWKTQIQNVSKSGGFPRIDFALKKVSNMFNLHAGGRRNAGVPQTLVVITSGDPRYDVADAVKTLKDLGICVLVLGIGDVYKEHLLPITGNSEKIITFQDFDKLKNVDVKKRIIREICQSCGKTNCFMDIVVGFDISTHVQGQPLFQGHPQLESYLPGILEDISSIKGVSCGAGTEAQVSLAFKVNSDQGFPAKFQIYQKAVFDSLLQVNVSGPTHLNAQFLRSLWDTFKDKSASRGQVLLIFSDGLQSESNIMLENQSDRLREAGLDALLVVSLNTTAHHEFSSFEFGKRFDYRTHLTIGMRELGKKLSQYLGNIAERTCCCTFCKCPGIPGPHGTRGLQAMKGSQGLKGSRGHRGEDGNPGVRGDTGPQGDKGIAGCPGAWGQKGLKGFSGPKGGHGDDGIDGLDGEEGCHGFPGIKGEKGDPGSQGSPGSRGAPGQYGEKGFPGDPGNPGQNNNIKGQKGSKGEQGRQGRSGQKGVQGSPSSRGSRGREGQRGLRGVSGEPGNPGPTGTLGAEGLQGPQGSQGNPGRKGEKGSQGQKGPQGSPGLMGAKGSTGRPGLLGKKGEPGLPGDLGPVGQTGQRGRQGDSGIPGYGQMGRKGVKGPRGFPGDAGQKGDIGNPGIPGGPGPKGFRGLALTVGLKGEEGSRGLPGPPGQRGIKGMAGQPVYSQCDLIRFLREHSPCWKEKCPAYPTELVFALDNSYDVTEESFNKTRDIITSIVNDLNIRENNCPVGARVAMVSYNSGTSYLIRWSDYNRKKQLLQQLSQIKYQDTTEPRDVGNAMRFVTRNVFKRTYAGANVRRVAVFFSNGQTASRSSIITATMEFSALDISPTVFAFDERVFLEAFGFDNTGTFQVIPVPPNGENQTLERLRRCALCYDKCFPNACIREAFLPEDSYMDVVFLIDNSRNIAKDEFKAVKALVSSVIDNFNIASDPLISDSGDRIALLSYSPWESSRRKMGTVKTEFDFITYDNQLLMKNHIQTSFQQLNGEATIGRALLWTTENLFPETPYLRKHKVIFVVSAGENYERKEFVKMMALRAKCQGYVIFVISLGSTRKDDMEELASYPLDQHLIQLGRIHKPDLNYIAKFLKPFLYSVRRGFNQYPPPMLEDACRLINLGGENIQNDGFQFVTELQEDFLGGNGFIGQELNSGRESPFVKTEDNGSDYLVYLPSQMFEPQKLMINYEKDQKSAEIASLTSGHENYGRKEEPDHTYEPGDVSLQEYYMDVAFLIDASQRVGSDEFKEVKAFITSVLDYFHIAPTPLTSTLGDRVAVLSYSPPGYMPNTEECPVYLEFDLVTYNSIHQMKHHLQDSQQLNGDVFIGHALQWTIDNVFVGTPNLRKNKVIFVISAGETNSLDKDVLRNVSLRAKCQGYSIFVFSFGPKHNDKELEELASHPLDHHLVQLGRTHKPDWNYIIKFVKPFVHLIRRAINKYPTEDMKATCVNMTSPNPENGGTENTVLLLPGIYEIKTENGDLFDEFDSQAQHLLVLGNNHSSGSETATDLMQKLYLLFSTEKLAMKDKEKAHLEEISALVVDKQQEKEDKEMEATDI
UniProt Q14050, residues 26-684: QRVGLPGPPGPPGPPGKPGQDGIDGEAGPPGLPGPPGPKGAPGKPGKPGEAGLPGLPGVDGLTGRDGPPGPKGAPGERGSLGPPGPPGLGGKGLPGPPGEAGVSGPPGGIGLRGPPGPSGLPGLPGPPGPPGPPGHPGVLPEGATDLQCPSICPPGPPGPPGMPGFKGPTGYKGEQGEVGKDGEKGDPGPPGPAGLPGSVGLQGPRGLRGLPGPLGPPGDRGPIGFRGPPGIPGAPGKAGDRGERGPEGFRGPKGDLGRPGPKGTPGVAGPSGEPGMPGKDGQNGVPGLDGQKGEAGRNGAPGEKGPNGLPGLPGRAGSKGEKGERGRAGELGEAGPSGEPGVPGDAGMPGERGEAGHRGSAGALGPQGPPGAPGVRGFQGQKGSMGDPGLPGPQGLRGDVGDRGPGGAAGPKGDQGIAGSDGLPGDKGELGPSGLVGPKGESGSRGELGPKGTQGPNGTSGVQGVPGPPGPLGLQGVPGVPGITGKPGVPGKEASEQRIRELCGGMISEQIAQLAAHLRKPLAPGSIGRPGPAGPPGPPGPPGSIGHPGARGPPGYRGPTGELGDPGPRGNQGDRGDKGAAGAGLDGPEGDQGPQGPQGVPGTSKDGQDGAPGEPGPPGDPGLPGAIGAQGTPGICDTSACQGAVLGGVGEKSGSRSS

Tests used:
GST-USP3 = target: T1, GST-USP3 (UniProt Q9Y6I4); assay: pull-down; lysates of AGS and BGC-823 cells transfected with COL9A3 or COL6A5 incubated with GST or GST-USP3; proteins retained on sepharose blotted; only the target purified
T1 sequence: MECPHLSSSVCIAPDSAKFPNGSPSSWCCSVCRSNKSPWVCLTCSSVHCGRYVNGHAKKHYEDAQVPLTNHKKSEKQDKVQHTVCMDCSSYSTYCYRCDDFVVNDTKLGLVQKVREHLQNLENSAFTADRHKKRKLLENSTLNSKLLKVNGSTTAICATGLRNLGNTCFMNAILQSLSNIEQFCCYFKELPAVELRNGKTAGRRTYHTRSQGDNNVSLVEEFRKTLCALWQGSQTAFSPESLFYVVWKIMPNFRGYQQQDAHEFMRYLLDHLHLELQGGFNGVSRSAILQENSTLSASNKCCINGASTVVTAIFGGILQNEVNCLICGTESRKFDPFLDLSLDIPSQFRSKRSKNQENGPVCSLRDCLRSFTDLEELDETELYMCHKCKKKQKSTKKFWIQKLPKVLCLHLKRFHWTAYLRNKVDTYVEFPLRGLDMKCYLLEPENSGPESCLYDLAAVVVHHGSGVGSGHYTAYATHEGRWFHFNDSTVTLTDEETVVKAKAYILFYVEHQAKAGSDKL

[1] = target: COL6A5, endogenous (human (endogenous in GC cells)) (UniProt A8TX70); assay: co-IP; reciprocal co-IP of endogenous proteins from GC cell lysates with control IgG, anti-USP3, anti-COL9A3 or anti-COL6A5; antibody overnight at 4 °C, protein A/G agarose 2 h at 4 °C; western blot
[2] = target: COL9A3, endogenous (human (endogenous in GC cells)) (UniProt Q14050); assay: as above
His-tagged COL6A5 = His-tagged COL6A5 (UniProt A8TX70); assay: co-IP; tagged constructs co-transfected into AGS (Fig. 2B also BGC-823) cells; immunoprecipitation with anti-Flag, anti-Myc or anti-His; antibody overnight at 4 °C, protein A/G agarose 2 h at 4 °C; western blot
Myc-tagged COL9A3 = Myc-tagged COL9A3 (UniProt Q14050); assay: as above

Molecule: His-tagged COL6A5 (from UniProt A8TX70 19-2615)
binding (GST-USP3): binds

B1: Ubiquitin-specific protease 3 (USP3), endogenous (enzyme, UniProt Q9Y6I4 1-520)
chain: MECPHLSSSVCIAPDSAKFPNGSPSSWCCSVCRSNKSPWVCLTCSSVHCGRYVNGHAKKHYEDAQVPLTNHKKSEKQDKVQHTVCMDCSSYSTYCYRCDDFVVNDTKLGLVQKVREHLQNLENSAFTADRHKKRKLLENSTLNSKLLKVNGSTTAICATGLRNLGNTCFMNAILQSLSNIEQFCCYFKELPAVELRNGKTAGRRTYHTRSQGDNNVSLVEEFRKTLCALWQGSQTAFSPESLFYVVWKIMPNFRGYQQQDAHEFMRYLLDHLHLELQGGFNGVSRSAILQENSTLSASNKCCINGASTVVTAIFGGILQNEVNCLICGTESRKFDPFLDLSLDIPSQFRSKRSKNQENGPVCSLRDCLRSFTDLEELDETELYMCHKCKKKQKSTKKFWIQKLPKVLCLHLKRFHWTAYLRNKVDTYVEFPLRGLDMKCYLLEPENSGPESCLYDLAAVVVHHGSGVGSGHYTAYATHEGRWFHFNDSTVTLTDEETVVKAKAYILFYVEHQAKAGSDKL
binding [1]: binds | binding [2]: binds

Continued, values first:

binding (GST-USP3): binds
Molecule: Myc-tagged COL9A3 (from UniProt Q14050 26-684)

binding (His-tagged COL6A5): binds | binding (Myc-tagged COL9A3): binds
B2: Flag-tagged USP3 (enzyme, UniProt Q9Y6I4 1-520)
chain: MECPHLSSSVCIAPDSAKFPNGSPSSWCCSVCRSNKSPWVCLTCSSVHCGRYVNGHAKKHYEDAQVPLTNHKKSEKQDKVQHTVCMDCSSYSTYCYRCDDFVVNDTKLGLVQKVREHLQNLENSAFTADRHKKRKLLENSTLNSKLLKVNGSTTAICATGLRNLGNTCFMNAILQSLSNIEQFCCYFKELPAVELRNGKTAGRRTYHTRSQGDNNVSLVEEFRKTLCALWQGSQTAFSPESLFYVVWKIMPNFRGYQQQDAHEFMRYLLDHLHLELQGGFNGVSRSAILQENSTLSASNKCCINGASTVVTAIFGGILQNEVNCLICGTESRKFDPFLDLSLDIPSQFRSKRSKNQENGPVCSLRDCLRSFTDLEELDETELYMCHKCKKKQKSTKKFWIQKLPKVLCLHLKRFHWTAYLRNKVDTYVEFPLRGLDMKCYLLEPENSGPESCLYDLAAVVVHHGSGVGSGHYTAYATHEGRWFHFNDSTVTLTDEETVVKAKAYILFYVEHQAKAGSDKL
